Entries after “also recorded” stand apart in the source; their conditions may differ. At least one structure is not confirmed: it was looked up by name or label, or the drawing left a doubt.
Assays:
[1] = tested on: ε/S3-site cleavage of γ-secretase substrates (APP-GVP, NotchΔE-GVP, E-cadherin-GVP, CD44-GVP); test: ICD transactivation assay (intracellular domain release of γ-secretase substrates); assay type: cell-based; settings: HEK cells, 1 μM, 48 hours
Text: ICD Transactivation (Assay Quantitates Intracellular Domain Release of a Panel of γ-Secretase Substrates in Cell Lines)
A Firefly luciferase based transactivation assay is used to measure inhibition of ε/S3-site cleavage of γ-secretase substrates. This assay involves the use of chimeric substrates harboring a GAL4/VP16 (GVP) transactivation domain fused to the intracellular domain (ICD): APP-GVP, NotchΔE-GVP, E-cadherin-GVP and CD44-GVP. Upon cleavage and release of ICDs, the GVP domain drives the expression of the luciferase gene under the control of the UAS promoter. In this assay, HEK cells were transiently co-transfected with the chimeric substrate along with a UAS promoter driven luciferase and β-galactosidase (transfection control). Upon cleavage by γ-secretase, the released ICD-GVP translocates to the nucleus to drive the expression of the UAS-luciferase gene. The activity of luciferase in these cells is directly proportional to the amount of γ-secretase-cleaved ICDs. Luciferase activity is determined by the standard techniques of luciferin addition to lysed cells and measurement of total luminescence. In addition, to account for the differences in transfection efficiencies an absorbance based β-galactosidase enzyme assay is performed to normalize the luminescence read-out.

[2] = tested on: γ-secretase substrates NotchΔE, E-cadherin, SCN2b and CD43 in HEK293 cells; test: Full length γ-secretase substrates, immunoblot of cell lysates; assay type: cell-based; settings: titrated concentrations with TPA
Procedure: Assessing Full Length γ-Secretase Substrates (Assay Qualitatively Assesses the Processing of a Panel of γ-Secretase Substrates)
Cells are plated and treated overnight with titrated compound and the phorbol ester, TPA. Since all of the proteins undergo regulated membrane proteolysis characterized by an initial ectodomain shedding event followed by the intramembraneous cleavage of the […] fragment (CTF) by γ-secretase, TPA induces the initial cleavage event producing the substrate for γ-secretase. The effect of compounds on γ-secretase activity in relation to these substrates is measured by tracking the processing of the V5 tagged CTFs by Western blot analysis. Accumulation of the CTFs indicates inhibition of γ-secretase activity.

[3] = tested on: γ-secretase complex; test: Compound binding assay (displacement of tritiated γ-secretase inhibitor tracers); settings: semi-purified γ-secretase complex, increasing concentrations
Procedure: Compound Binding: (Assay Quantitates In Vitro Displacement of Bound γ-Secretase Inhibitor Tracers)
All radioligand binding experiments are performed using CHAPSO-solubilized HEK293 (gammaNRCF8) P2 membranes stably over expressing recombinant gamma secretase. For radioligand binding, solubilized enzyme is incubated in the presence of tritiated inhibitors. Nonspecific binding is determined by adding an excess of unlabeled inhibitor to the reaction, and serial dilutions of the tritiated ligands are used to obtain saturation binding isotherm. Bound ligand is separated from free ligand by adsorption of the enzyme complex to polyethyleneimine-coated glass fiber filter plates and rapid filtration in a cell harvester followed by washing. After drying plates, scintillant is added, and the plates are read on a Microplate Scintillation counter. Binding competition assay is performed by incubating serial dilutions of various inhibitors in the presence of 1 nM ^3H-labeled compound Reference Example L-458 (transition state inhibitor) or 4 nM ^3H-labeled compound Reference Example L-881 (non-transition state inhibitor). To determine the antagonist competitiveness of various inhibitors, respective ^3H tracer doss-response curves are analyzed in presence of different concentrations of these compounds.

`O=S(=O)(N[C@H]1C[C@@](c2cc(F)ccc2F)(S(=O)(=O)c2ccc(Cl)cc2)C1)C(F)(F)F` [Example 2, N-[cis-3-[(4-chlorophenyl)sulfonyl]-3-(2,5-difluorophenyl)cyclobutyl]-1,1,1-trifluoromethanesulfonamide] was tested, and the “ICD release of γ-secretase substrates (ε/S3-cleavage)” value [1] was “retained ICD release; also recorded: retained initial ε/S3-cleavage”, the “accumulation of CTFs (immunoblot)” value ([2]; HEK293 cells overexpressing E-cadherin, SCN2b, CD43) was “no or less CTF accumulation” and the “NICD generation (immunoblot)” value ([2]; HEK293 cells overexpressing NotchΔE) was “allowed for NICD generation”. The “displacement of tritiated tracer L-458 (transition state)” value [3] was “not L-458” and the “displacement of tritiated tracer L-881 (non transition state)” value [3] was “fully displace L-881”.
